PubChem BioAssay AID652272, Drosophila RNAi Screening Center, 2013
Assay: 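Genes whose knock-down decreases or increases Hedgehog reporter output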 (primary screen). Cells: Drosophila clone 8 (Cl8) cells. Reagents: long dsRNA against Drosophila genes. Read-out: 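Firefly light from a Hedgehog-responsive ptc promoter reporter and Renilla reference light, both read on a plate reader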. Scale: firefly Hh reporter signal: higher = more ptc reporter light; Renilla reference signal: higher = more Renilla control light. Rule for the call: 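Called a hit if the two-replicate mean z-score lies below -2 or above +3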. Calls: active = hit: reporter lowered or raised; inactive = not a hit.
The screen tested about 21,000 reagents; this is an unselected part of those with a known target gene and a result. In the full data, 503 (2.4%) got an active call. 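Raw plate light values, not normalised; calls rest on replicate z-scores that were not deposited; hits include reporter decreases as well as increases.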 A number with no mark means an inactive call. A plus sign joins genes that one reagent is predicted to hit. Not stated in the record: the amount of reagent, the time to read-out.

target | dsRNA | firefly Hh reporter signal, replicate 1 | firefly Hh reporter signal, replicate 2 | Renilla reference signal, replicate 1 | Renilla reference signal, replicate 2
CG6254 (GeneID 41244) | DRSC16002 | 1.16e5 | 1.04e5 | 5080 | 4130
Pino (GeneID 33288) | DRSC00038 | 4.13e5 | 1.15e5 | 21117 | 4405
Pino (GeneID 33288) | DRSC00662 | 1.01e5 | 86613 | 4480 | 4005
Gnptab (GeneID 35943) | DRSC07057 | 86483 | 65148 | 2059 | 4461
Gr59e (GeneID 37725) | DRSC04276 | 78995 | 54246 | 1956 | 4949
EloC (GeneID 37237) | DRSC07423 | 68690 | 69377 | 1361 | 4605
bbx + waw | DRSC20575 | 89088 | 1.08e5 | 2125 | 2810
bbx + waw | DRSC20589 | 71025 | 2.18e5 | 1899 | 8530
Jon99Fii + Jon99Cii + Jon99Ciii + 1 more | DRSC15298 | 1.71e5 | 1.29e5 | 5917 | 3779
CG10376 (GeneID 35126) | DRSC02049 | 59227 | 28776 | 2988 | 1476
CG10340 (GeneID 42020) | DRSC14232 | 1.29e5 | 80757 | 5195 | 3109

Next part, starting with the last 2 of the part before.
target | dsRNA | firefly Hh reporter signal, replicate 1 | firefly Hh reporter signal, replicate 2 | Renilla reference signal, replicate 1 | Renilla reference signal, replicate 2
CG10376 (GeneID 35126) | DRSC02049 | 59227 | 28776 | 2988 | 1476
CG10340 (GeneID 42020) | DRSC14232 | 1.29e5 | 80757 | 5195 | 3109
Mpi (GeneID 41192) | DRSC16417 | 76653 | 1.22e5 | 1803 | 3220
OXA1L (GeneID 39222) | DRSC09672 | 76264 | 56453 | 3824 | 2352
CG15152 (GeneID 35082) | DRSC02453 | 1.11e5 | 59677 | 2928 | 5383
CG8197 (GeneID 35912) | DRSC07105 | 93415 | 42776 | 1995 | 3945
CG40045 (GeneID 3355079) | DRSC21232 | 7.72e5 | 2.66e5 | 44857 | 6939
Pex7 (GeneID 38994) | DRSC10651 | 31841 | 57077 | 4456 | 3789
CG14879 (GeneID 41982) | DRSC15003 | 1.11e5 | 1.26e5 | 2384 | 3481
Nup37 (GeneID 43040) | DRSC14419 | 5.72e5 | 1.07e5 | 33521 | 3081
Snrk (GeneID 36579) | DRSC07192 | 99779 | 62564 | 4567 | 2849
dgt5 (GeneID 36364) | DRSC07280 | 52388 | 29411 | 2586 | 1417
CG15046 (GeneID 32833) | DRSC19622 | 86182 | 3.18e5 | 1184 | 13222
Mcm10 (GeneID 35390) | DRSC03162 | 53130 | 65579 | 2597 | 2544
